In publication PMC11869522, “Competitive displacement of lipoprotein lipase from heparan sulfate is orchestrated by a disordered acidic cluster in GPIHBP1” (Journal of Lipid Research, 2025):
No constants are given. Whether binding was seen depends on the method and setting. Some binding calls cover weakened binding; strength is not graded here.

B1: GPIHBP1^1–131/R38G (domain or fragment, human, UniProt Q8IV16 21-151, looked up)
chain: QTQQEEEEEDEDHGPDDYDEEDEDEVEEEETNRLPGGGSRVLLRCYTCKSLPRDERCNLTQNCSHGQTCTTLIAHGNTESGLLTTHSTWCTDSCQPITKTVEGTQVTMTCCQSSLCNVPPWQSSRVQDPTG
modifications: sulfated Tyr18; one bi-antennary N-linked glycosylation
B2: GPIHBP1^Cluster2-neutral (domain or fragment, human, UniProt Q8IV16 21-151, looked up)
chain: QTQQEEEEEDEDHGPDDYNQQNQNQVQQQQTNRLPGGGSRVLLRCYTCKSLPRDERCNLTQNCSHGQTCTTLIAHGNTESGLLTTHSTWCTDSCQPITKTVEGTQVTMTCCQSSLCNVPPWQSSRVQDPTG
modifications: Tyr18 sulfation absent; one bi-antennary N-linked glycosylation
notes: Construct from VectorBuilder Inc; source: Drosophila S2-cells, secreted, purified, D3 tag removed; not shown: uPAR domain III, N-terminal, cleaved
B3: GPIHBP1^34–131 (LU domain only, lacking the acidic tail) (domain or fragment, UniProt Q8IV16 54-151)
chain: LPGGGSRVLLRCYTCKSLPRDERCNLTQNCSHGQTCTTLIAHGNTESGLLTTHSTWCTDSCQPITKTVEGTQVTMTCCQSSLCNVPPWQSSRVQDPTG

Key:
[1] = biological target: T1, Human LPL (lipoprotein lipase) (human, UniProt P06858 28-475, R324A); assay: SPR; 12.5 nM hLPL captured on a high density of biotinylated sulfated heparin dp4 fragments on a streptavidin-coated CM5 chip; GPIHBP1 variants injected in twofold dilutions (1.25–200 nM) for 250 s at 20 ul/min; 10 mM Hepes pH 7.4, 150 mM NaCl, 4 mM CaCl2, 10% glycerol, 0.05% P20, 0.2 mg/ml BSA; both purified
T1 sequence (looked up): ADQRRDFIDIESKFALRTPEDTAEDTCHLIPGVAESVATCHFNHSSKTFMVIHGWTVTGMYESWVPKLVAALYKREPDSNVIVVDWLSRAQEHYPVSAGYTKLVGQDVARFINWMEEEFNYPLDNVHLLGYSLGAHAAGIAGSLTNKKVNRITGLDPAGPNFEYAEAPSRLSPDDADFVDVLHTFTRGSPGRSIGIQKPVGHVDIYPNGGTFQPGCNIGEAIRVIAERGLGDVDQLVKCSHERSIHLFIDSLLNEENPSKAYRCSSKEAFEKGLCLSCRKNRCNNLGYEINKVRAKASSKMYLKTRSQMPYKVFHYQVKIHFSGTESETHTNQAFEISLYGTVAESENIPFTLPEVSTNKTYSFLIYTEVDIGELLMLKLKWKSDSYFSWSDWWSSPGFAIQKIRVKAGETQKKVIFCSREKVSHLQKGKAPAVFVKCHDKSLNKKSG

[2] = biological target: T1, Human LPL (lipoprotein lipase); assay: native gel or EMSA; native PAGE of purified GPIHBP1 charge variants with hLPL, bLPL or mLPL (supplemental Fig. S1); both purified
Mouse LPL (mouse) = biological target: T2, Mouse LPL (mouse) (UniProt P11152); assay: as above
T2 sequence: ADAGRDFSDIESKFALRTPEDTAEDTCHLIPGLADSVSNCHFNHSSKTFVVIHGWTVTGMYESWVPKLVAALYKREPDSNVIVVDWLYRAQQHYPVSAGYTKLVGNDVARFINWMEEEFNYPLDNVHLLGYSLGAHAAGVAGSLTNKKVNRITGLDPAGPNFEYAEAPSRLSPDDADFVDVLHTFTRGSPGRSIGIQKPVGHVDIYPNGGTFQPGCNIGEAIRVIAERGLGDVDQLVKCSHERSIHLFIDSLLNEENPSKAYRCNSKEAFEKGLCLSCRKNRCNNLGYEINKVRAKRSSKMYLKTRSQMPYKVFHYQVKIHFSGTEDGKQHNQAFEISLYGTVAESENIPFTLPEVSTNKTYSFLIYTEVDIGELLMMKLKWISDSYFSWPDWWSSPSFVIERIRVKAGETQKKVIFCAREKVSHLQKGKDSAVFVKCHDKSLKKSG

[3] = biological target: T1, Human LPL (lipoprotein lipase); assay: cross-linking; zero-length EDC crosslinking: GPIHBP1 carboxylates preactivated with EDC, then hLPL added (21 uM GPIHBP1, 4 uM hLPL, 1 mM EDC), 10 mM MES, 150 mM NaCl, pH 5.0, 22°C, 2 h or 4 h; SDS-PAGE bands digested with trypsin, crosslinks identified by LC-MS/MS; both purified

Row | Binder | binding [1] | binding [2] | binding (Mouse LPL (mouse)) | binding [3]
1 | B1 | binds |  |  | 
2 | B2 | binds | binds | binds | binds weakly
3 | B3 | binds |  |  | 
